# According to paper doi:10.1101/2022.10.14.512051:
# By UniProt entry, the sequences of proteins in these tests, tags left out. Where a name states a change or a piece, a line headed by the entry shows the natural chain unless it says otherwise.
# UniProt Q13620, whole entry: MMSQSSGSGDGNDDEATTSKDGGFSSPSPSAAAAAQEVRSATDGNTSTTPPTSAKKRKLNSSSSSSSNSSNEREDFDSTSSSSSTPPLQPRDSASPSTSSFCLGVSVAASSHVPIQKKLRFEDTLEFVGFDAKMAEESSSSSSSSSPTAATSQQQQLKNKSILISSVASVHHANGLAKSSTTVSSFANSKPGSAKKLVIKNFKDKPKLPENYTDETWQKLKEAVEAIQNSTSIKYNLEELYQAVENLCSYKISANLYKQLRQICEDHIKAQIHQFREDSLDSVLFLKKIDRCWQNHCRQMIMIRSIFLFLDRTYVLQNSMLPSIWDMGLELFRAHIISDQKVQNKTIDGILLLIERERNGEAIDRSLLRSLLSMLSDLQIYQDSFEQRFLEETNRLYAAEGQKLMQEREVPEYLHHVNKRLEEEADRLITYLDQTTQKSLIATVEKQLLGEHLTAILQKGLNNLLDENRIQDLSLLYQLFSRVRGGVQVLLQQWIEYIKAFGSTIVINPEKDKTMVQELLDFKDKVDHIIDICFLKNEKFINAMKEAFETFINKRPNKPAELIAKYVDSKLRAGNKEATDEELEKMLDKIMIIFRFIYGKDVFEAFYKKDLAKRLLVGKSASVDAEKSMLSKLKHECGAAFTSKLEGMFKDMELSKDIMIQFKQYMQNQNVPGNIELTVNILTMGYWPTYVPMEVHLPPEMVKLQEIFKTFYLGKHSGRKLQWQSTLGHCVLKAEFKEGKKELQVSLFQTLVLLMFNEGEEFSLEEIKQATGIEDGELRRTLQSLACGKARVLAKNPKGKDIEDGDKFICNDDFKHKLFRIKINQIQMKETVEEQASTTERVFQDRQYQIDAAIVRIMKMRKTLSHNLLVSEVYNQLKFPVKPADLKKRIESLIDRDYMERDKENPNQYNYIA
# UniProt Q5TAQ9, whole entry: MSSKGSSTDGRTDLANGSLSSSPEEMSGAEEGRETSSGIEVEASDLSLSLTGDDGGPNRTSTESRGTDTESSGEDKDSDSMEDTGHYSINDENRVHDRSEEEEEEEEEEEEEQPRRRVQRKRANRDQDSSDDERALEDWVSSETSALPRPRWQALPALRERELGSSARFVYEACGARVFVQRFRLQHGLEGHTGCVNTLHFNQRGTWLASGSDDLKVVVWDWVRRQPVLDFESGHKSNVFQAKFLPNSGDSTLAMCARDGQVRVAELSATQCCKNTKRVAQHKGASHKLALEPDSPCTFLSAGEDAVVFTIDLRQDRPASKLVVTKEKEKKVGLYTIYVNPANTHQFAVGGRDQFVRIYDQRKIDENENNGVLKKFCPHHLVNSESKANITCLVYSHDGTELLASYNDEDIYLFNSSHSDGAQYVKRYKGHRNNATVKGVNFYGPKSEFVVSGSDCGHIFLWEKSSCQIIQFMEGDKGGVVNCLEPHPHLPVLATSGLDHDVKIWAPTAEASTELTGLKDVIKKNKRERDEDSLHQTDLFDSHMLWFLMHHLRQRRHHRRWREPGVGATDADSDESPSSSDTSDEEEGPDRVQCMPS
# UniProt Q14203, whole entry: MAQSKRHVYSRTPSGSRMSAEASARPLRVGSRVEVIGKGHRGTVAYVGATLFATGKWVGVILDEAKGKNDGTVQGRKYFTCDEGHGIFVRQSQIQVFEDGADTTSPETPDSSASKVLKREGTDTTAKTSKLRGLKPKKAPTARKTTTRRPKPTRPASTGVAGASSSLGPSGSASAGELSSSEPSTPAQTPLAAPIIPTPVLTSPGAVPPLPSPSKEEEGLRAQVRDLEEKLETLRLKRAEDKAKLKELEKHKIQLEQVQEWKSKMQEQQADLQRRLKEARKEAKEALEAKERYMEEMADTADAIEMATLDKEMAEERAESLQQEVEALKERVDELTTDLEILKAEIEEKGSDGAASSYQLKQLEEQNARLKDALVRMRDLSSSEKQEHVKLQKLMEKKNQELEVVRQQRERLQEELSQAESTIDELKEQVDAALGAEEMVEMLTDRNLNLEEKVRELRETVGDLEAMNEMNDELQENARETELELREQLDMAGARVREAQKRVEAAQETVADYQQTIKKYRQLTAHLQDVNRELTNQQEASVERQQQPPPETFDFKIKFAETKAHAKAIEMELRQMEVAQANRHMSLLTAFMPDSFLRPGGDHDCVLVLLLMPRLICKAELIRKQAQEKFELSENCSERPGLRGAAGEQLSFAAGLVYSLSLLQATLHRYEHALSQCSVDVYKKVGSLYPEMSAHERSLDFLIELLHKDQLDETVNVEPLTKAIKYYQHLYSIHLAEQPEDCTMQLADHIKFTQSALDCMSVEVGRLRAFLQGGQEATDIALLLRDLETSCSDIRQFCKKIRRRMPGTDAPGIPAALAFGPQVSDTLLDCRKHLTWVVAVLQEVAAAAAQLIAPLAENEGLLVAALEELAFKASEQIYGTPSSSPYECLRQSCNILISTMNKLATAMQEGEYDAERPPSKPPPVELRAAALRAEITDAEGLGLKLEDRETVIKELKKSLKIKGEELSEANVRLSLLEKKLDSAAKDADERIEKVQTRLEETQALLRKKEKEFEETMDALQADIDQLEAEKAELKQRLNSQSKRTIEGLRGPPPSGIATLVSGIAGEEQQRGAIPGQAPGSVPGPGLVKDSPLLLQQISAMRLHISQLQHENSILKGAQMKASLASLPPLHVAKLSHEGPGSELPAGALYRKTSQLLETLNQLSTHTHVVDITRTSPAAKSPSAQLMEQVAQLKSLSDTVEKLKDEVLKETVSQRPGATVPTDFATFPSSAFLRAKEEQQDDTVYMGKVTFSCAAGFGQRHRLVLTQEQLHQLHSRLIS
# UniProt Q16531, whole entry: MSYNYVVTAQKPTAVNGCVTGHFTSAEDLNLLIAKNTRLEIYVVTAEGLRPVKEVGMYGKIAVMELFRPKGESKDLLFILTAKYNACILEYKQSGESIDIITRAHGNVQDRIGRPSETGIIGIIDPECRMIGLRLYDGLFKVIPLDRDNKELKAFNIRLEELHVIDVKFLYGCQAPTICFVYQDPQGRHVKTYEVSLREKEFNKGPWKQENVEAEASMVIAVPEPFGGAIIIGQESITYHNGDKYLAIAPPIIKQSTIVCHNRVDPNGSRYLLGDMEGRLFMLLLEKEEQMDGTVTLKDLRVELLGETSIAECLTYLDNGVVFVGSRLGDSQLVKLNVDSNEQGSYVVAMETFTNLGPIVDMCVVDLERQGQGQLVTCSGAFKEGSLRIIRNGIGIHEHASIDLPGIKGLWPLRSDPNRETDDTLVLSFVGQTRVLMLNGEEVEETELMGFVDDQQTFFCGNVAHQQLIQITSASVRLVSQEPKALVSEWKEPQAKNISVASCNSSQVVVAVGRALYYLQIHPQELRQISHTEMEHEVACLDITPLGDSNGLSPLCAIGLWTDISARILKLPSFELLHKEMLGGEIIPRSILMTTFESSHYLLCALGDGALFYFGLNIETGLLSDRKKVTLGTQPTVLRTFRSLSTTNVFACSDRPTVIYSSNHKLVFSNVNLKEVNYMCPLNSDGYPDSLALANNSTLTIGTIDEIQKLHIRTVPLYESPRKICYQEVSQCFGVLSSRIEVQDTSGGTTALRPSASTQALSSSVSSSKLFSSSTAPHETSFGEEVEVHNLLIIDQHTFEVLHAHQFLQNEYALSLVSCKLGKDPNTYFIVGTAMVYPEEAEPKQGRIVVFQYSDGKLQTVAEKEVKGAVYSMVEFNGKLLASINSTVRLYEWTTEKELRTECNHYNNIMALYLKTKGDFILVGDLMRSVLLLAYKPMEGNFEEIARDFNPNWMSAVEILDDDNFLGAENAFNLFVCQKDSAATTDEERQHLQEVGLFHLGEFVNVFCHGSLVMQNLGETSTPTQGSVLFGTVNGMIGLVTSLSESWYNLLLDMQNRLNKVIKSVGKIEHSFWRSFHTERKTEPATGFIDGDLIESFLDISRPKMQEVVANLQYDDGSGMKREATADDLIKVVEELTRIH
# Results are given in words; binding and its absence hold for the method and conditions named. In cells and extracts the contact can be indirect. Some results given as binding are weak or reduced against the parent protein; the word gives no strength. For some assays here: Tags and fused reporters may be left off the sequences shown.
# What was measured:
# [1] = target: HA-tagged CUL4B, wild type (endogenously tagged) (human (endogenous in HeLa Kyoto)) (UniProt Q13620); assay: co-IP
# [2] = target: HA-tagged CUL4B P50L mutant (endogenously tagged) (human (endogenous in HeLa Kyoto)) (UniProt Q13620); assay: co-IP
# [3] = target: T1, FLAG-tagged WDR1 (Sf9 co-expression) (human) (UniProt O75083); assay: pull-down
# T1 sequence: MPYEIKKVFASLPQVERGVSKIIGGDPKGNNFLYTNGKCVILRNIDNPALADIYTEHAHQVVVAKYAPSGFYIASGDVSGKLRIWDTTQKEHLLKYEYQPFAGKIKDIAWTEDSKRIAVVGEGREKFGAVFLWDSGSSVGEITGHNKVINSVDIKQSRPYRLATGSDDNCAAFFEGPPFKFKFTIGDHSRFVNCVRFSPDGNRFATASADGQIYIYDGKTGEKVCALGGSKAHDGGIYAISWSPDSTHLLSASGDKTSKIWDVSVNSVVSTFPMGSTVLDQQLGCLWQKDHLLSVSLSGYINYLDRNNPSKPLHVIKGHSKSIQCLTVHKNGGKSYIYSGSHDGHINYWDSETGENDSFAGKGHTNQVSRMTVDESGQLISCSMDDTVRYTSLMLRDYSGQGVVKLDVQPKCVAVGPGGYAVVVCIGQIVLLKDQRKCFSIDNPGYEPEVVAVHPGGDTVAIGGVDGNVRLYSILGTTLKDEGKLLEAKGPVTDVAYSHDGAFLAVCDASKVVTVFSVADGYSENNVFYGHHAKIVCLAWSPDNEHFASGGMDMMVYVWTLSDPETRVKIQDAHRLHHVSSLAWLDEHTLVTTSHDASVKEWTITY
# [4] = target: Strep-DCAF8 (Sf9 co-expression) (UniProt Q5TAQ9); assay: pull-down
Substance,binding [1],binding [2],binding [3],binding [4]
"DCTN1 (dynactin, endogenous) (from UniProt Q14203 1-1278)",binds,–,–,–
DDB1 (endogenous) (from UniProt Q16531 1-1140),binds,binds,–,–
His-DDB1 (recombinant) (from UniProt Q16531 1-1140),–,–,binds,binds
